These are yes or no findings as the source states them, for the method shown. In cells and extracts the contact can be indirect. These calls come from enrichment with a bait or labelling near it, and not all partners need be listed.
B1: Prdx1 (protein, UniProt Q63716 1-199)
chain: MSSGNAKIGHPAPSFKATAVMPDGQFKDISLSDYKGKYVVFFFYPLDFTFVCPTEIIAFSDRAEEFKKLNCQVIGASVDSHFCHLAWINTPKKQGGLGPMNIPLVSDPKRTIAQDYGVLKADEGISFRGLFIIDDKGILRQITINDLPVGRSVDEILRLVQAFQFTDKHGEVCPAGWKPGSDTIKPDVNKSKEYFSKQK
B2: Sccpdh (protein, UniProt Q6AY30 1-429)
chain: MATEQRPFQLVVFGASGFTGQFVTEEVAREQMASEQSSRLPWAVAGRSKEKLQQVLEKAAQKLGRATLSSEVGIIICDISNPASLDEMAKKATLVLNCVGPYRFYGEPVVKACIENGTSCIDICGEPQFLELMHVKYHEKAAEKGVYIIGSSGFDSIPADLGVLYTRNQMNGTLTAVESFLTINSGPEGLCIHDGTWKSAIYGFGDKGSLRKLRSVSNLKPVPVIGSKLKRRWPVSYCRELNSYAIPFLGSDMSVVKRTQRYLHENLEDSPVQYAAYITVGGITSVIKLMFAGLFFLFFVKFSIGRQLLVKFPWLFSFGYFSKRGPTQKQMDESSFTMTFFGQGYSHGVSAEKNKPNIRICTQVKGPEAGYVATPIAMVQAAVTFLNDASDLPKGGGVFTPGAAFSRTKLIDRLNQHGIQFSVISSSEV
B3: Serpina3n (protein, UniProt P09006 30-418)
chain: TLFHEDQDKGTQLDSLTLASINTDFAFSLYKKLALRNPDKNVVFSPLSISAALAVVSLGAKGNSMEEILEGLKFNLTETPETEIHRGFGHLLQRLSQPRDEIQISTGNALFIEKRLQVLAEFQEKAKALYQAEAFTADFQQSREAKKLINDYVSKQTQGKIQGLITNLAKKTSMVLVNYIYFKGKWKVPFDPRDTFQSEFYSGKRRPVKVPMMKLEDLTTPYVRDEELNCTVVELKYTGNASALFILPDQGKMQQVEASLQPETLRRWKDSLRPSMIDELYLPKFSISADYNLEDVLPELGIKEVFSTQADLSGITGDKDLMVSQVVHKAVLDVAETGTEAAAATGVKFVPMSAKLDPLIIAFDRPFLMIISDTETAIAPFLAKIFNPK
B4: Pgam2 (protein, UniProt P16290 1-253)
chain: MATHRLVMVRHGESSWNQENRFCGWFDAELSEKGAEEAKRGATAIKDAKIEFDICYTSVLKRAIRTLWTILDVTDQMWVPVVRTWRLNERHYGGLTGLNKAETAAKHGEEQVKIWRRSFDTPPPPMDEKHNYYASISKDRRYAGLKPEELPTCESLKDTIARALPFWNEEIAPKIKAGKRVLIAAHGNSLRGIVKHLEGMSDQAIMELNLPTGIPIVYELNQELKPTKPMRFLGDEETVRKAMEAVAAQGKAK
B5: Ces1c (protein, UniProt P10959 19-549)
chain: HPSSPPVVDTTKGKVLGKYVSLEGFTQPVAVFLGVPFAKPPLGSLRFAPPEPAEPWSFVKNTTTYPPMCSQDGVVGKLLADMLSTGKESIPLEFSEDCLYLNIYSPADLTKNSRLPVMVWIHGGGLIIGGASPYSGLALSAHENVVVVTIQYRLGIWGLFSTGDEHSRGNWAHLDQLAALRWVQDNIANFGGNPDSVTIFGESAGGVSVSALVLSPLAKNLFHRAISESGVVLTTNLDKKNTQAVAQMIATLSGCNNTSSAAMVQCLRQKTEAELLELTVKLDNTSMSTVIDGVVLPKTPEEILTEKSFNTVPYIVGFNKQEFGWIIPTMMGNLLSEGRMNEKMASSFLKRFSPNLNISESVIPAIIEKYLRGTDDPAKKKELLLDMFSDVFFGIPAVLMSRSLRDAGAPTYMYEFQYRPSFVSDQRPQTVQGDHGDEIFSVFGTPFLKEGASEEETNLSKLVMKFWANFARNGNPNGEGLPHWPKYDQKEGYLQIGATTQQAQKLKGEEVAFWTELLAKNPPQTEHTEHT
B6: Hnrnph1 (protein, UniProt Q8VHV7 1-449)
chain: MMLGAEGGEGFVVKVRGLPWSCSADEVQRFFSDCKIQNGAQGIRFIYTREGRPSGEAFVELESEDEVKLALKKDRETMGHRYVEVFKSNNVEMDWVLKHTGPNSPDTANDGFVRLRGLPFGCSEEEIVQFFSGLEIVPNGITLPVDFQGRSTGEAFVQFASQEIAEKALKKHKERIGHRYIEIFKSSRAEVRTHYDPPRKLMAMQRPGPYDRPGAGRGYNSIGRGAGFERMRRGAYGGGYGGYDDYNGYNDGYGFGSDRFGRDLNYCFSGMSDHRYGDGGSTFQSTTGHCVHMRGLPYRATENDIYNFFSPLNPVRVHIETGPDGRVTGEADVEFATHEDAVAAMSKDKANMQHRYVELFLNSTAGASGGAYEHRYVELFLNSTAGASGGAYGSQMMGGMGLSNQSSYGGPASQQLSGGYGGGYGGQSSMSGYDQVLQENSSDFQSNIA
B7: Zwint (protein, UniProt Q8VIL3 1-266)
chain: MADAEKNAVAEKNAVAEENAVAEENAVADKNATKEVLAEAASVLEPVGLPEEAELPAKIMEEFMRNSRKKDKLLCSQLQVVNFLQTFLAQEDNTDQNPDALASEDTSRQKATETKEQWKELKATYMDHVDVIKCALSEALPQVKEAHRKYTELQKAFEQLEAKKRVLEEKLQLAQKQWVLQQKRLQNLTKISAEVKRRRKRALEKLDGSHQELETLKQQAGQEQEKLQRNQSYLQLLCSLQNKLVISESKADDKDVKGPALPPKSP
B8: Cat (protein, UniProt P04762 1-527)
chain: MADSRDPASDQMKQWKEQRAPQKPDVLTTGGGNPIGDKLNIMTAGPRGPLLVQDVVFTDEMAHFDRERIPERVVHAKGAGAFGYFEVTHDITRYSKAKVFEHIGKRTPIAVRFSTVAGESGSADTVRDPRGFAVKFYTEDGNWDLVGNNTPIFFIRDAMLFPSFIHSQKRNPQTHLKDPDMVWDFWSLCPESLHQVTFLFSDRGIPDGHRHMNGYGSHTFKLVNANGEAVYCKFHYKTDQGIKNLPVEEAGRLAQEDPDYGLRDLFNAIASGNYPSWTFYIQVMTFKEAETFPFNPFDLTKVWPHKDYPLIPVGKLVLNRNPANYFAEVEQMAFDPSNMPPGIEPSPDKMLQGRLFAYPDTHRHRLGPNYLQIPVNCPYRARVANYQRDGPMCMHDNQGGAPNYYPNSFSAPEQQGSALEHHSQCSADVKRFNSANEDNVTQVRTFYTKVLNEEERKRLCENIANHLKDAQLFIQRKAVKNFTDVHPDYGARVQALLDQYNSQKPKNAIHTYVQAGSHIAAKGKANL
B9: Mest (protein, UniProt Q6P5P5 1-335)
chain: MVRRDRLRRMREWWVQVGLLAVPLLAAYLHIPPPQLSPALHSWKTSGKFFTYKGLRIFYQDSVGVVGSPEIVVLLHGFPTSSYDWYKIWEGLTLRFHRVIALDFLGFGFSDKPRPHQYSIFEQASIVESLLRHLGLQNRRINLLSHDYGDIVAQELLYRYKQNRSGRLTIKSLCLSNGGIFPETHRPLLLQKLLKDGGVLSPILTRLMNFFVFSRGLTPVFGPYTRPTESELWDMWAGIRNNDGNLVIDSLLQYINQRKKFRRRWVGALASVTIPIHFIYGPLDPINPYPEFLELYRKTLPRSTVSILDDHISHYPQLEDPMGFLNAYMGFINSF
B10: Hnrnpm (protein, UniProt Q62826 1-690)
chain: MAAGVEAAAEVAATEPKMEEESGAPCVPSGNGAPVPKGEERPTQNEKRKEKNIKRGGNRFEPYANPTKRYRAFITNIPFDVKWQSLKDLVKEKVGEVTYVELLMDAEGKSRGCAVVEFKMEESMKKAAEVLNKHSLSGRPLKVKEDPDGEHARRAMQKAGRLGSTVFVANLDYKVGWKKLKEVFSMAGVVVRADILEDKDGKSRGIGTVTFEQSIEAVQAISMFNGQLLFDRPMHVKMDERALPKGDFFPPERPQQLPHGLGGIGMGLGPGGQPIDANHLNKGIGMGNLGPAGMGMEGIGFGINKIGGMEGPFGGGMENMGRFGSGMNMGRINEILSNALKRGEIIAKQGGSGAGGSVPGIERMGPGIDRISGAGMERMGAGLGHGMDRVGSEIERMGLVMDRMGSVERMGSGIERMGPLGLDHMASSIERMGQTMERIGSGVERMGAGMGFGLERMAAPIDRVGQTIERMGSGVERMGPAIERMGLSMDRMVPTGMGAGLERMGPVMDRMATGLERMGANNLERMGLERMGANSLERMGLERMGANSLERMGPAMGPALGAGIERMGLAMGGAGGASFDRTIEMERGNFGGSFAGSFGGAGGHAPGVARKACQIFVRNLPFDFTWKMLKDKFNECGHVLYADIKMENGKSKGCGVVKFESPEVAERACRMMNGMKLSGREIDVRIDRNA

By UniProt entry, the sequences of proteins in these tests, tags left out.
UniProt Q9NZV8: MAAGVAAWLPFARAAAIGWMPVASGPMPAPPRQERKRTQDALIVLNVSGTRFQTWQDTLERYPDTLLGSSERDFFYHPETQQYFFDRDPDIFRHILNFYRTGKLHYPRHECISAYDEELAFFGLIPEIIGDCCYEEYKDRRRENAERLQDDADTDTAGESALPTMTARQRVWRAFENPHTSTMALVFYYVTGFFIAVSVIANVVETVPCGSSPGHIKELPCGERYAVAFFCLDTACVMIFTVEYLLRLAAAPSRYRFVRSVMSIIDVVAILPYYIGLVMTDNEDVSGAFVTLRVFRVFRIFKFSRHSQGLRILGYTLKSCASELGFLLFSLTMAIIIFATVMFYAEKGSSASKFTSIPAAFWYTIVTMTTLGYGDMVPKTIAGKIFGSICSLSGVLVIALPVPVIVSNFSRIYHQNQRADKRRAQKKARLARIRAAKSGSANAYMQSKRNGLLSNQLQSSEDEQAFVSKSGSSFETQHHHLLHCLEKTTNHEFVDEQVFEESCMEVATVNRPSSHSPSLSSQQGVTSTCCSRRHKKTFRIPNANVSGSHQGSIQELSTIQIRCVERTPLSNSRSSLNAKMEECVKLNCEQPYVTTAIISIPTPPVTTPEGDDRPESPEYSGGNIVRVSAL

Molecular target: TAP-Kv4.2 (human) (UniProt Q9NZV8)
Test: affinity purification with mass spectrometry; TAP-Kv4.2 expressed by lentivirus in rat hippocampal neurons, harvested at DIV14; weak lysis buffer of the kit (0.1% NP-40); streptavidin resin, then calmodulin resin; gel cut into high and low molecular weight fragments; no MS of the control sample

Binder | binding
B1 | binds
B2 | binds
B3 | binds
B4 | binds
B5 | binds
B6 | binds
B7 | binds
B8 | binds
B9 | binds
B10 | binds

Source: publication PMC9788671
